The supplement of paper PMC9135407
“And” between values parts separate entries of the source, which are not always exact repeats. Equal values may be shown once. Where a name gives a salt, the structure may show the parent alone. ± gives the standard deviation of the averaged measurements. This is one part of the list. Part of the spread comes from offsets between plates or batches.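 Assay uses culture-activated primary human stellate myofibroblasts; lipid droplet recovery indicates inactivation. Measured: proportion of Hoechst-counted cells over a plate-specific Bodipy cutoff, duplicate wells, DMSO and nortriptyline as per-plate negative and positive controls. A hit scores, control-normalized, above the plate's top-tenth-percentile nortriptyline wells or ranks among its three best wells. Final well concentrations not reported.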

System: primary human hepatic stellate cells (donor 1)
Assay: percent Bodipy-positive cells; higher = more lipid droplet accumulation
Settings: 48 h
[1] = library stock concentration: 3.33 mM
[2] = library stock concentration: 10 mM
[3] = library stock concentration: 80 uM
[4] = library stock concentration: 400 uM
[5] = library stock concentration: 2 mM
[6] = library stock concentration: 1 mM

Cc1c(C(=O)Nc2ccc(N3C[C@@H](C)O[C@@H](C)C3)nc2)cccc1-c1ccc(OC(F)(F)F)cc1 [LDE225 (NVP-LDE225,Erismodegib)]
percent Bodipy-positive cells [1]: 28 ± 8% | percent Bodipy-positive cells [2]: 93.8 ± 3.9%

Nc1cc(C(F)(F)F)c(-c2cc(N3CCOCC3)nc(N3CCOCC3)n2)cn1
percent Bodipy-positive cells [3]: 13.3 ± 0.49% | percent Bodipy-positive cells [4]: 9.06 ± 1.6% | percent Bodipy-positive cells [5]: 6.1 ± 0.39% | percent Bodipy-positive cells [2]: 25.3 ± 3.6%

Nc1cc(C(F)(F)F)c(-c2cc(N3CCOCC3)nc(N3CCOCC3)n2)cn1 [BKM120 (NVP-BKM120, Buparlisib)]
percent Bodipy-positive cells [1]: 11 ± 0.12% | percent Bodipy-positive cells [2]: 36.6 ± 12%

CC(C)NNC(=O)c1ccncc1 [Iproniazid phosphate]
percent Bodipy-positive cells [2]: 26.5 ± 10%

CC(C)NNC(=O)c1ccncc1 [Iproniazid sulfate]
percent Bodipy-positive cells [2]: 17.5 ± 8.6%

CC(C)NNC(=O)c1ccncc1 [Iproniazide phosphate]
percent Bodipy-positive cells: 20.4 ± 0.7%

CSCC[C@H](NC(=O)[C@H](Cc1c[nH]c2ccccc12)NC(=O)CCNC(=O)OC(C)(C)C)C(=O)N[C@@H](CC(=O)O)C(=O)N[C@@H](Cc1ccccc1)C(N)=O
percent Bodipy-positive cells [2]: 30.6 ± 2.3%

Cc1ccc(Sc2cncc3sc(C(N)=O)cc23)cc1
percent Bodipy-positive cells [1]: 34.1 ± 9.5%

CNCCCN1c2ccccc2CCc2ccccc21.Cl [Desipramine hydrochloride]
percent Bodipy-positive cells [2]: 98.73 ± 0.44%

CCCCC[C@@H](O)/C=C/[C@H]1[C@H](C/C=C\CCCC(=O)O)[C@H](O)C[C@@H]1O [ent-Prostaglandin F2.alpha.]
percent Bodipy-positive cells [6]: 8.03 ± 3.8%

Cc1cnc(NC(=O)Nc2cc(Br)c(C)cc2OC[C@@H]2CNCCO2)cn1
percent Bodipy-positive cells [3]: 10.7 ± 6.7% | percent Bodipy-positive cells [4]: 12.8 ± 1.6% | percent Bodipy-positive cells [5]: 30.7 ± 3.3% | percent Bodipy-positive cells [1]: 64.7 ± 2.1% | percent Bodipy-positive cells [2]: 98.8% and 84.6%

N[C@H](C(=O)O)c1ccc(C(=O)O)c(O)c1 [(S)-4-Carboxy-3-hydroxyphenylglycine]
percent Bodipy-positive cells [2]: 7.87 ± 1.7%

CCCCCCCCCCCC#CC#CC#CC#CC(=O)O [Eicosatetraynoic Acid]
percent Bodipy-positive cells [6]: 8.82 ± 1.4%

COc1cc2ncnc(Nc3ccc(Cl)cc3Cl)c2cc1OC [Ste11 MAPKKK Activation Inhibitor]
percent Bodipy-positive cells [1]: 6.71 ± 2%

CC(CNC(=O)c1cccnc1)NC(=O)c1cccnc1 (centres undefined) [Nicaraven]
percent Bodipy-positive cells [1]: 10.6 ± 4.7% | percent Bodipy-positive cells [2]: 23.8 ± 14%

CC(C)SC(=N)N [S-isopropyl Isothiourea (hydrobromide)]
percent Bodipy-positive cells [6]: 10.9 ± 6.8%

CC(C)SC(=N)N [S-Isopropylisothiourea hydrobromide]
percent Bodipy-positive cells [2]: 7.77 ± 0.29%

O=C(Nc1ccccc1)N1CCN(c2nc(-c3ccccc3)ns2)CC1
percent Bodipy-positive cells [1]: 7.13 ± 2.3% | percent Bodipy-positive cells [2]: 28 ± 1%

CCc1ccc(OCc2ccccc2C(=O)Nc2ccc3nc(C)cc(N)c3c2)cc1
percent Bodipy-positive cells [1]: 90.1 ± 14%

CN(C)CCc1c[nH]c2ccc(CS(=O)(=O)N3CCCC3)cc12 [Almotriptan Malate]
percent Bodipy-positive cells [1]: 13.3 ± 3.9% | percent Bodipy-positive cells [2]: 13.5 ± 7.3%

CN(C)CCc1c[nH]c2ccc(CS(=O)(=O)N3CCCC3)cc12 [Almotriptan]
percent Bodipy-positive cells [2]: 31.8 ± 1.7%

Cn1nc(C(C)(C)C)cc1C(=O)N[C@@H](Cc1cccc(Cl)c1)C(=O)NCC#N [Cathepsin Inhibitor 1]
percent Bodipy-positive cells [1]: 9.95 ± 3.3% | percent Bodipy-positive cells [2]: 17.1 ± 3.9%

CC1(COc2ccc(CC3SC(=O)NC3=O)cc2)CCCCC1 (centres undefined) [Ciglitazone]
percent Bodipy-positive cells [6]: 6.48% and 20.6% | percent Bodipy-positive cells [2]: 7.05 ± 1.9%

CN(c1ncccc1CNc1nc(Nc2ccc3c(c2)CC(=O)N3)ncc1C(F)(F)F)S(C)(=O)=O
percent Bodipy-positive cells [3]: 8.95 ± 4% | percent Bodipy-positive cells [4]: 14.5% and 21%

CN1CCN2c3ccccc3Cc3ccccc3C2C1 (centres undefined) [Mianserin HCl]
percent Bodipy-positive cells [1]: 26.9 ± 1.3% | percent Bodipy-positive cells [2]: 44 ± 3.2%

CN1CCN2c3ccccc3Cc3ccccc3C2C1 (centres undefined) [Mianserin hcl]
percent Bodipy-positive cells (library stock concentration: 7.6 mM): 30.5 ± 3.4%

CN1CCN2c3ccccc3Cc3ccccc3C2C1 (centres undefined) [Mianserin hydrochloride]
percent Bodipy-positive cells (library stock concentration: 6.6 mM): 40 ± 9.8% | percent Bodipy-positive cells [2]: 33.9 ± 5.8%

CN1CCN2c3ccccc3Cc3ccccc3C2C1 (centres undefined) [Mianserine hydrochloride]
percent Bodipy-positive cells: 70.7 ± 12%

CN1CCCN(C(=O)c2cccc(-c3ccc(/C=C4/C(=O)Nc5ccc(Cl)cc54)o3)c2)CC1
percent Bodipy-positive cells [1]: 99.4 ± 0.85% | percent Bodipy-positive cells [2]: 96.6 ± 1.6%

CCCCCCCCOc1ccccc1C(=O)Nc1ccc(C(=O)OCC[N+](C)(CC)CC)cc1 [Otilonium Bromide]
percent Bodipy-positive cells [1]: 9.5 ± 3.1% | percent Bodipy-positive cells [2]: 48.7 ± 39%

N[C@@H](Cc1ccc(O)c(O)c1)C(=O)O [Levodopa]
percent Bodipy-positive cells: 26.7 ± 7.6% | percent Bodipy-positive cells [2]: 38.8 ± 0.56%

N[C@@H](Cc1ccc(O)c(O)c1)C(=O)O [L-3,4-Dihydroxyphenylalanine]
percent Bodipy-positive cells [2]: 36 ± 0.81%

CCCCc1ncc(/C=C(\Cc2cccs2)C(=O)O)n1Cc1ccc(C(=O)O)cc1 [Eprosartan Mesylate]
percent Bodipy-positive cells [1]: 7.97 ± 0.56% | percent Bodipy-positive cells [2]: 35.6 ± 2.6%

CCCCc1ncc(/C=C(\Cc2cccs2)C(=O)O)n1Cc1ccc(C(=O)O)cc1 [Eprosartan]
percent Bodipy-positive cells (library stock concentration: 4.7 mM): 10.43 ± 0.057%

CCCCc1ncc(/C=C(\Cc2cccs2)C(=O)O)n1Cc1ccc(C(=O)O)cc1 [Eprosartan mesylate]
percent Bodipy-positive cells [2]: 29.2 ± 13%

O=C(O)CCC(=O)c1ccc(-c2ccccc2)cc1 [Fenbufen]
percent Bodipy-positive cells: 20.9 ± 1.2% | percent Bodipy-positive cells (library stock concentration: 7.9 mM): 8.62% and 16.9% | percent Bodipy-positive cells [2]: 18.5 ± 7.5%
